PubChem BioAssay AID504744 | Drosophila RNAi Screening Center | 2011
Screen: 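Uncover factors, including feedback loops, that control dAkt activation in fly cells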 (primary screen). Cell system: Drosophila Kc167 cells. Reagent: long dsRNA against Drosophila genes, 250 ng dsRNA per well of a 384-well plate. Duration: 3 days of knock-down, then overnight serum-free starvation before stimulation. Conditions: bovine insulin at 387 nM for 10 minutes after 12 h without serum. Measurement: 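In-cell antibody fluorescence for phospho-dAkt in each well over DNA-dye signal, with log2 residuals expressed as z-scores adjusted for cell count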. Hit rule: 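Hit in the insulin screen when the two-replicate mean z-score is more extreme than plus or minus 2.5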.
The screen tested about 23,000 reagents; this is an unselected part of those that have a named target and a result. Of all reagents, 98 (0.43%) are marked active. 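Only hit calls are given; the phospho-dAkt signals, z-scores and hit direction were not deposited.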 Reagent sequences are not shown.

For Rac1 [DRSC08688], what was measured?
activity call: inactive

With CG5377 [DRSC15783], what was measured?
activity call: inactive

For Grip75 [DRSC03337], how do the results read?
activity call: inactive

For CG34039 [DRSC09318], what was measured?
activity call: inactive

What did the screen give for vari [DRSC03202]?
activity call: inactive

What did the screen give for CG13627 [DRSC14629]?
activity call: inactive

With Fer1 [DRSC12507], how do the results read?
activity call: inactive

With Fer1 [DRSC12555], what was measured?
activity call: inactive

With CG42397 [DRSC09147], how do the results read?
activity call: inactive

How did the screen score CG13850 [DRSC14700]?
activity call: inactive

For CG9222 [DRSC03158], how do the results read?
activity call: inactive

For Prosalpha3T [DRSC15226], what was measured?
activity call: inactive

Which result is listed for CG11771 [DRSC14379]?
activity call: inactive

What is on record for CG10365 [DRSC14234]?
activity call: inactive

Which result is listed for Rh6 [DRSC16823]?
activity call: inactive

With CG14000 [DRSC02332], what was measured?
activity call: inactive

With TwdlP [DRSC14734], how do the results read?
activity call: inactive

With Jwa [DRSC02048], what was measured?
activity call: inactive

What did the screen give for Lgr3 [DRSC15704]?
activity call: inactive

For Lgr3 [DRSC15706], how do the results read?
activity call: inactive

What did the screen give for CG13876 [DRSC08346]?
activity call: inactive

What did the screen give for tok [DRSC17087]?
activity call: inactive

For p38a [DRSC16743], how do the results read?
activity call: inactive

Which result is listed for SAK [DRSC11879]?
activity call: inactive

Which result is listed for Zip42C.2 [DRSC05004]?
activity call: inactive

For CG12239 [DRSC17832], what was measured?
activity call: inactive

With Cka [DRSC03476], what was measured?
activity call: inactive

What did the screen give for Cka [DRSC22858]?
activity call: inactive

Which result is listed for Josd [DRSC18323]?
activity call: inactive

How did the screen score CG13051 [DRSC09932]?
activity call: inactive

For CG7737 [DRSC07033], how do the results read?
activity call: inactive

What is on record for sip1 [DRSC03609]?
activity call: inactive

For sip1 [DRSC22648], what was measured?
activity call: inactive

How did the screen score CG44433 [DRSC06517]?
activity call: inactive

What is on record for CG44433 [DRSC06518]?
activity call: inactive

With elm [DRSC12309], what was measured?
activity call: inactive

For CG31055 [DRSC13832], what was measured?
activity call: inactive

With Or85a [DRSC16764], what does the deposit list?
activity call: inactive

What is on record for CG33013 (retired record) [DRSC06286]?
activity call: inactive

Laid out differently: results already given
target gene,DRSC id,activity call
tok,DRSC17087,inactive
p38a,DRSC16743,inactive
SAK,DRSC11879,inactive
